Record: PubChem BioAssay AID1259308 (NCATS, 2017)

Purpose: 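Candidate targets for better recombinant protein yield in mammalian cells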 (primary screen)
Cell system: human HEK293 embryonic kidney cells stably expressing firefly luciferase (HEK-CMV-Luc2-Hygro)
Knock-down reagent: single siRNA against human genes, 0.8 pmol siRNA per well
Time to read-out: 72 h
Measured: 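Luciferase light (ONE-Glo) measured on one replicate plate set and viability (CellTiter-Glo) on the other, scaled to a negative control siRNA, with robust z-scores and luciferase per cell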
Scale: total luciferase, z-score: higher = more reporter protein produced
Active means: 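An siRNA counts as active if its total luciferase robust z-score exceeds 3; genes with two or more such siRNAs out of three were retested with fresh siRNAs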
Calls: active = raised luciferase; inactive = no rise
This is one part, drawn at random, of about 59,000 reagents. About 1,510 of all reagents (2.6%) count as active. 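Calls use total luciferase alone and ignore viability, so some active siRNAs may act by altering cell number.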 Entries without a mark were called inactive. Reagents against one gene are numbered here. Further read-outs or replicates are left out here. No sequences are given here.

LCE3C (late cornified envelope 3C) #1
- total luciferase, z-score: -0.218

LCE3C (late cornified envelope 3C) #2
- total luciferase, z-score: 1.27

LCE3C (late cornified envelope 3C) #3
- total luciferase, z-score: 0.0831

IQCH (IQ motif containing H) #1
- total luciferase, z-score: 0.788

IQCH (IQ motif containing H) #2
- total luciferase, z-score: 0.00936

IQCH (IQ motif containing H) #3
- total luciferase, z-score: 0.684

FER1L5 (fer-1 like family member 5) #1
- total luciferase, z-score: 0.449

FER1L5 (fer-1 like family member 5) #2
- total luciferase, z-score: 0.143

FER1L5 (fer-1 like family member 5) #3
- total luciferase, z-score: -0.107

TMEM107 (transmembrane protein 107) #1
- total luciferase, z-score: 0.711

TMEM107 (transmembrane protein 107) #2
- total luciferase, z-score: -0.659

TMEM107 (transmembrane protein 107) #3
- total luciferase, z-score: -0.0386

RPF2 (ribosome production factor 2 homolog) #1
- total luciferase, z-score: 0.223

RPF2 (ribosome production factor 2 homolog) #2
- total luciferase, z-score: -0.602

RPF2 (ribosome production factor 2 homolog) #3
- total luciferase, z-score: -0.0328

FHDC1-AS1 (FHDC1 antisense RNA 1) #1
- total luciferase, z-score: 0.471

FHDC1-AS1 (FHDC1 antisense RNA 1) #2
- total luciferase, z-score: -0.716

FHDC1-AS1 (FHDC1 antisense RNA 1) #3
- total luciferase, z-score: -0.692

SAXO4 (stabilizer of axonemal microtubules 4) #1
- total luciferase, z-score: 3.97 (active)

SAXO4 (stabilizer of axonemal microtubules 4) #2
- total luciferase, z-score: -0.693

SAXO4 (stabilizer of axonemal microtubules 4) #3
- total luciferase, z-score: 0.808

LOC728416 #1
- total luciferase, z-score: -0.476

LOC728416 #2
- total luciferase, z-score: -0.191

LOC728416 #3
- total luciferase, z-score: -0.348

ACVR1C (activin A receptor type 1C) #1
- total luciferase, z-score: 1.45

ACVR1C (activin A receptor type 1C) #2
- total luciferase, z-score: 0.367

ACVR1C (activin A receptor type 1C) #3
- total luciferase, z-score: -0.0263

RHOV (ras homolog family member V) #1
- total luciferase, z-score: -0.623

RHOV (ras homolog family member V) #2
- total luciferase, z-score: -0.661

RHOV (ras homolog family member V) #3
- total luciferase, z-score: 0.206

SDHAF2 (succinate dehydrogenase complex assembly factor 2) #1
- total luciferase, z-score: 0.127

SDHAF2 (succinate dehydrogenase complex assembly factor 2) #2
- total luciferase, z-score: 1.12

SDHAF2 (succinate dehydrogenase complex assembly factor 2) #3
- total luciferase, z-score: 1.2

3 entries from above, set out differently.
{"Target gene":"LOC728416","reagent no.":1,"total luciferase, z-score":-0.476}
{"Target gene":"LOC728416","reagent no.":2,"total luciferase, z-score":-0.191}
{"Target gene":"LOC728416","reagent no.":3,"total luciferase, z-score":-0.348}
